Assay [1] has as its system N87 human gastric carcinoma cells. Briefly: In vitro cytotoxicity, 72 hr continuous exposure, methylene blue staining. The following applies: N-87. The format is cell-based. As to the method:
(§1) The cytotoxicity of L-ALD/DOX relative to DOXIL and other control samples (free DOX, free ALD and L-ALD) was determined in three human cell lines, KB human cervical carcinoma, N87 human gastric carcinoma cells and IGROV-1 ovarian carcinoma.
(§2) Cytotoxicity was assayed using varying concentrations of ALD (0.1-200 μM) under standard 72 hr, continuous exposure, in 96-multiwell assays. Growth rate was assessed colorimetrically based on methylene blue staining and data was obtained with an automatic plate reader and IC50 values were determined

The subject of assay [2] is IGROV-1 ovarian carcinoma. Described as above. The assay is classed as cell-based. The settings on record: Homo sapiens. As to the method: as §1, §2
Other controls included Free ALD and DOX.
Cytotoxicity was assayed as described above in Example 1.

The text below walks through data of patent US10085940B2, “Liposomes co-encapsulating a bisphosphonate and an amphipathic agent” (YISSUM RESEARCH DEVELOPMENT COMPANY OF THE HEBREW …, priority 2011, dated 2018).

For orientation: IC50 means the midpoint of a concentration-inhibition curve.

As to `NCCCC(O)(P(=O)(O)O)P(=O)(O)O` [Free ALD, 4-amino-1-hydroxybutylidene-1,1-bisphosphonic acid], the IC50 was > 100 µM in assay [1] and > 20 µM in assay [2].
